From patent publication US20250099614A1
Results are given in words; binding and its absence hold for the method and conditions named. Some results given as binding are weak or reduced against the parent protein; the word gives no strength.

By UniProt entry, the sequences of proteins in these tests, tags left out. Where a name states a change or a piece, a line headed by the entry shows the natural chain unless it says otherwise.
UniProt Q01196: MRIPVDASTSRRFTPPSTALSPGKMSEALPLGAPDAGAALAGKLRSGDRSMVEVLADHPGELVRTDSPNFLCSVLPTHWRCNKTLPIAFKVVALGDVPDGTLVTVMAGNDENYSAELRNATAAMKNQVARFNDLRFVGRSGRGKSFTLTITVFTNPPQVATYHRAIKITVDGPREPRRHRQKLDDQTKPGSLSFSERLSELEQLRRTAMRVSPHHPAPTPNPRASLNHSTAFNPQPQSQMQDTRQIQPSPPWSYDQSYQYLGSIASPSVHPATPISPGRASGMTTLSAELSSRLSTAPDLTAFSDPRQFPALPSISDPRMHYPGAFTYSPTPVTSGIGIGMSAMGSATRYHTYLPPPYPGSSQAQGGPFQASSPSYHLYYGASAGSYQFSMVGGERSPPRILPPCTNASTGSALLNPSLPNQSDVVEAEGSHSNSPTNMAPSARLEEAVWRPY

What was measured:
[1] = molecular target: Runt-related transcription factor 1 (RUNX1) (human) (UniProt Q01196); assay: summary of Examples 1 to 6; co-localization in C-PVR cells
[2] = molecular target: Runt-related transcription factor 1 (RUNX1) (human) (UniProt Q01196); assay: immunocytochemistry of mRNA-transfected C-PVR cells (FIG. 3C)
[3] = molecular target: Runt-related transcription factor 1 (RUNX1) (human) (UniProt Q01196); assay: immunocytochemistry and confocal microscopy, co-localization in mRNA-transfected C-PVR cells

Measured: binding

B1: CBFbeta(1-165)-SMMHC(1527-1877) (CBFbeta-SMMHCΔC95) (protein)
chain: MPRVVPDQRSKFENEEFFRKLSRECEIKYTGFRDRPHEERQARFQNACRDGRSEIAFVATGTNLSLQFFPASWQGEQRQTPSREYVDLEREAGKVYLKAPMILNGVCVIWKGWIDLQRLDGMGCLEFDEERAQQEDALAQQAFEEARRRTREFEDRDRSHREEMEVHELEKSKRALETQMEEMKTQLEELEDELQATEDAKLRLEVNMQALKGQFERDLQARDEQNEEKRRQLQRQLHEYETELEDERKQRALAAAAKKKLEGDLKDLELQADSAIKGREEAIKQLRKLQAQMKDFQRELEDARASRDEIFATAKENEKKAKSLEADLMQLQEDLAAAERARKQADLEKEELAEELASSLSGRNALQDEKRRLEARIAQLEEELEEEQGNMEAMSDRVRKATQQAEQLSNELATERSTAQKNESARQQLERQNKELRSKLHEMEGAVKSKFKSTIAALEAKIAQLEEQVEQEAREKQAATKSLKQKDKKLKEILLQVEDERKMAEQYKEQAEKGNA
binds: [1] | [2] | [3]
